PubChem BioAssay AID493246 – Drosophila RNAi Screening Center | 2011

Test: 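Identify essential fly genes by loss of cell viability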 (primary screen)
Cells: Drosophila Kc and S2R+ cells
Knock-down reagent: long dsRNA against Drosophila genes
Detection: 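Raw, unnormalised count of remaining cells in each well; per-plate z-scores of cell number underlie the calls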
Direction: Kc cell number and S2R+ cell number: higher = more cells remaining
Active means: 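Counted as a hit if cell number falls by a z-score of at least 3 within its plate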
In all, the deposit lists about 21,000 reagents; this is a random part of those with a known target gene and a result. Of all reagents, 429 (2%) got an active call. 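Values are raw and not normalised between plates; calls rest on per-plate z-scores that were not deposited.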 A plus sign joins genes that one reagent is predicted to hit. Reagent sequences are not shown. The record does not give: the amount of reagent, the time to read-out.

The first 4 records, to show the layout:
gene knocked down	amplicon	Kc cell number, rep 1	Kc cell number, rep 2	S2R+ cell number, rep 1	S2R+ cell number, rep 2	Outcome
CG10445	DRSC14247	1.39e6	1.50e6	1.28e6	1.35e6	inactive
Eip63F-1	DRSC08072	1.48e6	1.45e6	1.01e6	1.14e6	inactive
Eip63F-1	DRSC08659	1.67e6	1.66e6	1.06e6	1.51e6	inactive
CG17207	DRSC15198	1.37e6	1.36e6	1.26e6	1.32e6	inactive

Main list, from the first entry:
gene knocked down	amplicon	Kc cell number, rep 1	Kc cell number, rep 2	S2R+ cell number, rep 1	S2R+ cell number, rep 2	Outcome
CG10445	DRSC14247	1.39e6	1.50e6	1.28e6	1.35e6	inactive
Eip63F-1	DRSC08072	1.48e6	1.45e6	1.01e6	1.14e6	inactive
Eip63F-1	DRSC08659	1.67e6	1.66e6	1.06e6	1.51e6	inactive
CG17207	DRSC15198	1.37e6	1.36e6	1.26e6	1.32e6	inactive
Nurf-38	DRSC04629	1.59e6	1.57e6	1.19e6	1.37e6	inactive
AttB	DRSC06734	1.53e6	1.51e6	1.15e6	1.32e6	inactive
peb	DRSC18817	1.45e6	1.46e6	1.05e6	1.13e6	inactive
CG10616	DRSC09750	1.40e6	1.45e6	1.32e6	1.26e6	inactive
Sin1	DRSC05965	1.46e6	1.50e6	1.17e6	1.20e6	inactive
asf1	DRSC11324	1.42e6	1.48e6	1.09e6	1.12e6	inactive
CG31693	DRSC03674	5.18e5		7.45e5		inactive
Pfrx	DRSC18856	1.73e6	1.73e6	1.13e6	1.32e6	inactive
Pfrx	DRSC19315	1.20e6	1.45e6	1.12e6	1.26e6	inactive
rn	DRSC12500	1.44e6	1.25e6	6.10e5	7.00e5	active
rn	DRSC12543	1.55e6	1.70e6	1.41e6	1.55e6	inactive
rn	DRSC12544	1.58e6	1.65e6	1.26e6	1.40e6	inactive
rn	DRSC12546	1.60e6	1.57e6	1.33e6	1.50e6	inactive
Gp93	DRSC15827	5.15e5		8.48e5		inactive
djl	DRSC12578	1.55e6	1.71e6	1.17e6	1.27e6	inactive
CG31525	DRSC12004	1.38e6	1.49e6	1.12e6	1.27e6	inactive
Jhbp4	DRSC14222	1.34e6	1.39e6	1.12e6	1.23e6	inactive
PIG-T	DRSC17774	1.43e6	1.42e6	1.08e6	1.18e6	inactive
Exo84	DRSC15965	1.53e6	1.62e6	9.50e5	1.06e6	inactive
sdt	DRSC17555	1.50e6	1.73e6	1.06e6	1.17e6	inactive
sdt	DRSC17556	1.25e6	1.54e6	1.13e6	1.15e6	inactive
sdt	DRSC17860	1.47e6	1.49e6	9.60e5	1.11e6	inactive
sdt	DRSC17861	1.48e6	1.49e6	9.38e5	1.06e6	inactive
sdt	DRSC18022	1.45e6	1.47e6	1.04e6	1.15e6	inactive
sdt	DRSC18025	1.14e6	1.11e6	6.43e5	7.20e5	inactive
sdt	DRSC18026	1.01e6	1.07e6	4.39e5	5.25e5	active
sdt	DRSC18027	1.65e6	1.62e6	1.05e6	1.18e6	inactive
sdt	DRSC18108	1.84e6	1.80e6	1.12e6	1.27e6	inactive
Irk1	DRSC16106	1.51e6	1.51e6	1.02e6	1.12e6	inactive
Vps11	DRSC11909	1.71e6	1.88e6	1.11e6	1.32e6	inactive
CG5043	DRSC02805	1.50e6	1.56e6	1.20e6	1.29e6	inactive
moon	DRSC19497	1.57e6	1.47e6	1.07e6	1.21e6	inactive
AlkB	DRSC19115	1.29e6	1.49e6	1.08e6	1.14e6	inactive
CG13170	DRSC06298	1.59e6	1.53e6	1.02e6	1.06e6	inactive
Amacr	DRSC03198	1.13e6	1.34e6	1.03e6	1.00e6	inactive
aralar1	DRSC13987	1.51e6	1.70e6	1.04e6	1.06e6	inactive
aralar1	DRSC16901	5.13e5		8.82e5		inactive
zetaTry	DRSC07720	1.52e6	1.49e6	1.17e6	1.29e6	inactive
bnl	DRSC13377	1.45e6	1.39e6	1.08e6	1.12e6	inactive
bnl	DRSC16913	1.41e6	1.50e6	6.39e5	7.42e5	active
KFase	DRSC03258	1.47e6	1.30e6	1.14e6	1.30e6	inactive
CG12659	DRSC17862	1.61e6	1.60e6	1.15e6	1.22e6	inactive
CG31279	DRSC13158	1.42e6	1.50e6	1.01e6	1.11e6	inactive
yin	DRSC18854	5.60e5		8.69e5		inactive
CG18542 + CG32939	DRSC15342	1.50e6	1.57e6	1.26e6	1.35e6	inactive
Prosalpha4T2	DRSC04643	1.53e6	1.55e6	1.27e6	1.48e6	inactive
wkd	DRSC15777	1.50e6	1.47e6	1.20e6	1.27e6	inactive
CG4849	DRSC15662	4.62e5		6.17e5		inactive
lsn	DRSC16081	1.35e6	1.32e6	1.03e6	1.09e6	inactive
GstT1	DRSC06243	1.70e6	1.76e6	1.32e6	1.47e6	inactive
jagn	DRSC12152	1.51e6	1.52e6	1.19e6	1.31e6	inactive
Teh1	DRSC14544	1.61e6	1.68e6	1.33e6	1.39e6	inactive
Cals	DRSC17196	5.50e5		8.68e5		inactive
PolQ	DRSC17006	1.88e6	1.96e6	1.33e6	1.38e6	inactive
nonA	DRSC20357	1.59e6	1.54e6	9.40e5	1.07e6	inactive
